# Data from PMC11650989.
# Results are given in words; binding and its absence hold for the method and conditions named. In cells and extracts the contact can be indirect. A yes stands for co-enrichment or nearness to the bait. Other partners may have been found.
# B1: Cold inducible RNA-binding protein (protein, UniProt Q14011 1-172)
# chain: MASDEGKLFVGGLSFDTNEQSLEQVFSKYGQISEVVVVKDRETQRSRGFGFVTFENIDDAKDAMMAMNGKSVDGRQIRVDQAGKSSDNRSRGYRGGSAGGRGFFRGGRGRGRGFSRGGGDRGYGGNRFESRSGGYGGSRDYYSSRSQSGGYSDRSSGGSYRDSYDSYATHNE
# B2: Endothelial differentiation-related factor 1 (protein, UniProt O60869 1-148)
# chain: MAESDWDTVTVLRKKGPTAAQAKSKQAILAAQRRGEDVETSKKWAAGQNKQHSITKNTAKLDRETEELHHDRVTLEVGKVIQQGRQSKGLTQKDLATKINEKPQVIADYESGRAIPNNQVLGKIERAIGLKLRGKDIGKPIEKGPRAK
# B3: Pyrophosphatase (inorganic) 1 (protein, UniProt Q15181 1-289)
# chain: MSGFSTEERAAPFSLEYRVFLKNEKGQYISPFHDIPIYADKDVFHMVVEVPRWSNAKMEIATKDPLNPIKQDVKKGKLRYVANLFPYKGYIWNYGAIPQTWEDPGHNDKHTGCCGDNDPIDVCEIGSKVCARGEIIGVKVLGILAMIDEGETDWKVIAINVDDPDAANYNDINDVKRLKPGYLEATVDWFRRYKVPDGKPENEFAFNAEFKDKDFAIDIIKSTHDHWKALVTKKTNGKGISCMNTTLSESPFKCDPDAARAIVDALPPPCESACTVPTDVDKWFHHQKN
# B4: Peroxiredoxin 1 (protein, UniProt Q06830 1-199)
# chain: MSSGNAKIGHPAPNFKATAVMPDGQFKDISLSDYKGKYVVFFFYPLDFTFVCPTEIIAFSDRAEEFKKLNCQVIGASVDSHFCHLAWVNTPKKQGGLGPMNIPLVSDPKRTIAQDYGVLKADEGISFRGLFIIDDKGILRQITVNDLPVGRSVDETLRLVQAFQFTDKHGEVCPAGWKPGSDTIKPDVQKSKEYFSKQK
# B5: Methionyl-tRNA synthetase (protein, UniProt P56192 1-900)
# chain: MRLFVSDGVPGCLPVLAAAGRARGRAEVLISTVGPEDCVVPFLTRPKVPVLQLDSGNYLFSTSAICRYFFLLSGWEQDDLTNQWLEWEATELQPALSAALYYLVVQGKKGEDVLGSVRRALTHIDHSLSRQNCPFLAGETESLADIVLWGALYPLLQDPAYLPEELSALHSWFQTLSTQEPCQRAAETVLKQQGVLALRPYLQKQPQPSPAEGRAVTNEPEEEELATLSEEEIAMAVTAWEKGLESLPPLRPQQNPVLPVAGERNVLITSALPYVNNVPHLGNIIGCVLSADVFARYSRLRQWNTLYLCGTDEYGTATETKALEEGLTPQEICDKYHIIHADIYRWFNISFDIFGRTTTPQQTKITQDIFQQLLKRGFVLQDTVEQLRCEHCARFLADRFVEGVCPFCGYEEARGDQCDKCGKLINAVELKKPQCKVCRSCPVVQSSQHLFLDLPKLEKRLEEWLGRTLPGSDWTPNAQFITRSWLRDGLKPRCITRDLKWGTPVPLEGFEDKVFYVWFDATIGYLSITANYTDQWERWWKNPEQVDLYQFMAKDNVPFHSLVFPCSALGAEDNYTLVSHLIATEYLNYEDGKFSKSRGVGVFGDMAQDTGIPADIWRFYLLYIRPEGQDSAFSWTDLLLKNNSELLNNLGNFINRAGMFVSKFFGGYVPEMVLTPDDQRLLAHVTLELQHYHQLLEKVRIRDALRSILTISRHGNQYIQVNEPWKRIKGSEADRQRAGTVTGLAVNIAALLSVMLQPYMPTVSATIQAQLQLPPPACSILLTNFLCTLPAGHQIGTVSPLFQKLENDQIESLRQRFGGGQAKTSPKPAVVETVTTAKPQQIQALMDEVTKQGNIVRELKAQKADKNEVAAEVAKLLDLKKQLAVAEGKPPEAPKGKKKK
# B6: Pyruvate dehydrogenase (lipoamide) beta (protein, UniProt P11177 31-359)
# chain: LQVTVRDAINQGMDEELERDEKVFLLGEEVAQYDGAYKVSRGLWKKYGDKRIIDTPISEMGFAGIAVGAAMAGLRPICEFMTFNFSMQAIDQVINSAAKTYYMSGGLQPVPIVFRGPNGASAGVAAQHSQCFAAWYGHCPGLKVVSPWNSEDAKGLIKSAIRDNNPVVVLENELMYGVPFEFPPEAQSKDFLIPIGKAKIERQGTHITVVSHSRPVGHCLEAAAVLSKEGVECEVINMRTIRPMDMETIEASVMKTNHLVTVEGGWPQFGVGAEICARIMEGPAFNFLDAPAVRVTGADVPMPYAKILEDNSIPQVKDIIFAIKKTLNI
# B7: Signal recognition particle 9 kDa (protein, UniProt P49458 1-86)
# chain: MPQYQTWEEFSRAAEKLYLADPMKARVVLKYRHSDGNLCVKVTDDLVCLVYKTDQAQDVKKIEKFHSQLMRLMVAKEARNVTMETE
# B8: Plastin 3 (protein, UniProt P13797 1-630)
# chain: MDEMATTQISKDELDELKEAFAKVDLNSNGFICDYELHELFKEANMPLPGYKVREIIQKLMLDGDRNKDGKISFDEFVYIFQEVKSSDIAKTFRKAINRKEGICALGGTSELSSEGTQHSYSEEEKYAFVNWINKALENDPDCRHVIPMNPNTDDLFKAVGDGIVLCKMINLSVPDTIDERAINKKKLTPFIIQENLNLALNSASAIGCHVVNIGAEDLRAGKPHLVLGLLWQIIKIGLFADIELSRNEALAALLRDGETLEELMKLSPEELLLRWANFHLENSGWQKINNFSADIKDSKAYFHLLNQIAPKGQKEGEPRIDINMSGFNETDDLKRAESMLQQADKLGCRQFVTPADVVSGNPKLNLAFVANLFNKYPALTKPENQDIDWTLLEGETREERTFRNWMNSLGVNPHVNHLYADLQDALVILQLYERIKVPVDWSKVNKPPYPKLGANMKKLENCNYAVELGKHPAKFSLVGIGGQDLNDGNQTLTLALVWQLMRRYTLNVLEDLGDGQKANDDIIVNWVNRTLSEAGKSTSIQSFKDKTISSSLAVVDLIDAIQPGCINYDLVKSGNLTEDDKHNNAKYAVSMARRIGARVYALPEDLVEVKPKMVMTVFACLMGRGMKRV
# B9: Polymerase delta-interacting protein 2 (protein, UniProt Q9Y2S7 52-368)
# chain: SSRNRPEGKVLETVGVFEVPKQNGKYETGQLFLHSIFGYRGVVLFPWQARLYDRDVASAAPEKAENPAGHGSKEVKGKTHTYYQVLIDARDCPHISQRSQTEAVTFLANHDDSRALYAIPGLDYVSHEDILPYTSTDQVPIQHELFERFLLYDQTKAPPFVARETLRAWQEKNHPWLELSDVHRETTENIRVTVIPFYMGMREAQNSHVYWWRYCIRLENLDSDVVQLRERHWRIFSLSGTLETVRGRGVVGREPVLSKEQPAFQYSSHVSLQASSGHMWGTFRFERPDGSHFDVRIPPFSLESNKDEKTPPSGLHW
# B10: Single-stranded DNA binding protein 1, mitochondrial (protein, UniProt Q04837 17-148)
# chain: ESETTTSLVLERSLNRVHLLGRVGQDPVLRQVEGKNPVTIFSLATNEMWRSGDSEVYQLGDVSQKTTWHRISVFRPGLRDVAYQYVKKGSRIYLEGKIDYGEYMDKNNVRRQATTIIADNIIFLSDQTKEKE
# Target: EGFP-Nsp4 (PRRSV non-structural protein 4) (porcine reproductive and respiratory syndrome virus (PRRSV))
# Assay: affinity purification with mass spectrometry; GFP-Trap beads on clarified lysates of HEK293T cells transfected with pEGFP-Nsp4 or pEGFP (24 h), 2 h at 4°C; label-free LC-MS/MS in triplicate, MaxQuant against a human database; FDR ≤1%, two or more unique peptides, ratio greater than twofold
row,Binder,binding
1,B1,binds
2,B2,binds
3,B3,binds
4,B4,binds
5,B5,binds
6,B6,binds
7,B7,binds
8,B8,binds
9,B9,binds
10,B10,binds
